Data on 1 sequence can be found in paper PMC4027163.

For at least one entry, the source does not settle the construct or the ends of the probe.

The subject of this series is PvuRts1I, N-terminal His tag. Kind of series: EMSA. To be noted: 5 mM Ca2+; none; EMSA: 20 mM Tris/HCl pH 8.0, 150 mM NaCl, 2 uM 32-mer duplex in 10 ul; recombinant protein; protein details: N-terminal MGHHHHHHEF; label: 3'-Cy5 (EMSA). (In general: A gel shift assay detects complexes by their altered migration in electrophoresis.)

As for “TCTGCCCACAATGCCGGTGAATCTAGGGTACG (double strand) [32-mer C-C oligoduplex]”, the binding result was “binds”.
